In paper PMC4374698:
These are yes or no findings as the source states them, for the method shown. For some assays here: Binding seen in cells or lysates may run through a third protein. Some entries that bind do so weakly or less than the wild type.

Chains of the proteins cited; added tags and fusions are not shown. Residues count along the entry.
UniProt Q9HC16: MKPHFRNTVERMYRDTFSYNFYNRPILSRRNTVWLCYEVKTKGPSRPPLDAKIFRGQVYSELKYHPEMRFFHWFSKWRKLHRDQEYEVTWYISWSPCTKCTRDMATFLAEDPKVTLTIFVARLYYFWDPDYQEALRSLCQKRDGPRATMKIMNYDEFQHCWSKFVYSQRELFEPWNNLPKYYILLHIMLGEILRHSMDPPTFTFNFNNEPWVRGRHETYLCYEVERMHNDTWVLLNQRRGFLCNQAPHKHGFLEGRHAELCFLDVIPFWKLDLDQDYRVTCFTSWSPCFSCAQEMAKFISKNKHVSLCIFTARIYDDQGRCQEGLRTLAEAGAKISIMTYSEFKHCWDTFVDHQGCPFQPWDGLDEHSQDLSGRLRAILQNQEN
UniProt Q99IB8, residues 1031-1661: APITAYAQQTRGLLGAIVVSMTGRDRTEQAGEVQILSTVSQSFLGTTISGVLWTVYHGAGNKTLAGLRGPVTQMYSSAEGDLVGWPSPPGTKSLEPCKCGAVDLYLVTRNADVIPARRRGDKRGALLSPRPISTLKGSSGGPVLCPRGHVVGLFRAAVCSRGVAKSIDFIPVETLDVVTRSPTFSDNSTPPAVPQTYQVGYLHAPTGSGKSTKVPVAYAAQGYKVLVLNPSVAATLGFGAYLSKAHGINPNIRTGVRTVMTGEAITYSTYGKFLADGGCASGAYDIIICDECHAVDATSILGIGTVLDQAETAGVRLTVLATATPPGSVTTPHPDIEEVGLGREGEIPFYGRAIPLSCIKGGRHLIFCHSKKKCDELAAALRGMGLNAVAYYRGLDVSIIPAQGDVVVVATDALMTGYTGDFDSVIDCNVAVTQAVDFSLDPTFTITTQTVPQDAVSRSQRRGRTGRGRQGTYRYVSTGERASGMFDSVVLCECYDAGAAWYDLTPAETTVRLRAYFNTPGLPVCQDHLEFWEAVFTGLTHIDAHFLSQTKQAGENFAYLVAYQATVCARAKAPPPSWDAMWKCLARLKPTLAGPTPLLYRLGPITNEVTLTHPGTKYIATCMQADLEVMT

Columns and labels:
[1] = target: full length wild-type hA3G fused with an HA tag at the C-terminus (hA3G-HA), in lysate of transfected Huh7.5 cells (human) (UniProt Q9HC16); test: co-IP; lysate of HCV-infected Huh7.5 cells transfected with phA3G-HA; HA-specific antibody 16 hrs at 4°C, Protein A Agarose, washed 4 times with DPBS; western blot with anti-NS3
[2] = target: purified hA3G-HA (human) (UniProt Q9HC16); test: SPR; BIAcore T100; purified hA3G-HA immobilised on CM5 chip (NHS/EDC); NS3-His injected at 0.3, 0.6, 1.2 or 3 μM in HBS-EP+ buffer; both purified

HCV non-structural protein NS3, from HCV-infected Huh7.5 cells (from UniProt Q99IB8 1031-1661)
binding [1]: binds

full-length HCV NS3 with His tag at the C-terminus (NS3-His), purified (from UniProt Q99IB8 1031-1661)
binding [2]: binds
